For orientation: AC50 means the concentration at which the activity in the assay is half-maximal.

Results on 62 compounds are retold here after PubChem BioAssay AID2685 (National Center for Advancing Translational Sciences (NCATS), 2010).

This test is described as follows: qHTS Assay for Lipid Storage Modulators in Drosophila S3 Cells.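 On cell number change: cells counted by Cell Tracker Red CMTPX staining in the red channel.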 The following applies: BODIPY lipid droplet fluorescence, 18-24 h; for cell number change: measured here: cell count max response, cells fed with added oleic acid. In short, it runs like this:
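Drosophila S3 cells got compounds at several concentrations plus oleic acid (400 uM solution). Laser-scanning cytometry with 488 nm excitation read lipid droplets at 500-530 nm and cells at 575-640 nm. Percent activity was relative to 20 uM Triacsin C.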
For orientation: Quantitative high-throughput screening tests each substance at several concentrations.

The mark [1] stands for this setting: measured here: cell number channel AC50, cells fed with added oleic acid.
[2] abbreviates: measured here: lipid fluorescence (Fed channel) AC50, cells fed with added oleic acid.

The other results are listed elsewhere or left out. These are further read-outs of the screen, such as a control signal, another cell line or another target. No call is given for them. Compounds called inactive in the main read-out are mostly missing here. The note in brackets gives the kind of curve behind each potency; many fits are weak.

`Cc1cc(/C=N/NC(=O)C(=O)NCc2ccccn2)c(C)n1-c1cccc(Br)c1`: the cell number change is -9.02%. Besides, under setting [1], the AC50 was 0.82 µM [falling, single point]. Also, the concentration at half-maximal activity (AC50) under setting [2] is 6.51 µM [rising, single point].

In the case of `Cc1ccc(Cl)c(OC(=O)Cn2cnc3c2c(=O)n(C)c(=O)n3C)c1`, the cell number change amounted to 28%. Moreover, under setting [2], the AC50 was 2.06 µM [rising, partial curve, poor fit].

Take `Cc1ccc(NC(=S)/C(=C(\[O-])c2ccc(F)cc2)[n+]2ccccc2)cc1`: the AC50 under setting [2] was 0.082 µM [rising, partial curve, poor fit]. For the compound `NC(=S)NNC(=O)C12CC3CC(CC(C3)C1)C2`, under setting [2], the AC50 is 29.1 µM [rising, single point]. Turning to `COc1ccc(C(=O)c2ccc(OC)c(Br)c2)cc1Br`, the cell number change was -24.4%. In addition, the AC50 under setting [1] is 4.61 µM [falling, full curve, poor fit]. Besides, the AC50 under setting [2] is 0.461 µM [falling, full curve, poor fit].

Turning to `CC(C)CN1CCC(=O)N(CCSc2ccccc2)CC1`, the cell number change is -9.88%.

`CCCCN1C(=O)CC(Sc2ncccc2C(=O)O)C1=O` (configuration not stated): the cell number change is -45.2%. The AC50 under setting [1] was 16.4 µM [falling, single point]. Regarding `Cc1ccc(S(=O)(=O)CC(=O)NC(C)c2ccccc2)cc1` (configuration not stated), the AC50 under setting [2] is 2.06 µM [rising, partial curve]. Regarding `Cc1ccc(NC(=O)c2ccc(C#CC3(O)CCCCC3)cc2)cc1C`, the cell number change stood at 42.2%. For the same compound, the AC50 under setting [2] is 1.64 µM [falling, partial curve].

Turning to `Cc1cc(C)c(NC(=O)CS(=O)CC(=O)Nc2ccc(N3CCOCC3)cc2)c(C)c1` (configuration not stated), the cell number change was 1.21%. For the same compound, the AC50 under setting [2] is 0.731 µM [rising, single point]. For `CCNS(=O)(=O)c1cc(Br)ccc1OC`, the cell number change is -171%. Further, the AC50 under setting [1] is 29.1 µM [falling, single point]. On to `CCN(CC)CCNC(=S)Nc1ccc2nc(N3CCN(CC)CC3)cc(C)c2c1`, for which the cell number change is 59.5%. With `Cc1ccc(NC(=O)CSc2ncccc2C(=O)Oc2cccc([N+](=O)[O-])c2)cc1Cl`, the cell number change was -21.3%. Besides, the AC50 under setting [1] is 0.00461 µM [falling, full curve, poor fit]. Take `CC1(C)CC(CC(=O)O)C(=O)O1` (configuration not stated): the cell number change was 17.6%. Also, the AC50 under setting [2] was 14.6 µM [falling, partial curve, poor fit]. As for `Cc1ccc(OCC(=O)N(Cc2nnc(-c3ccccc3Cl)o2)C2CC2)cc1C`, the cell number change is -4.28%. Moreover, the AC50 under setting [2] was 0.326 µM [rising, full curve]. Turning to `CCOC(=O)c1c(C)c(-c2ccccc2)n(CC(=O)N2CCCC2)c1C`, the cell number change is -13.5%. Under setting [1], the AC50 was 0.731 µM [falling, single point]. Besides, under setting [2], the AC50 is 23.1 µM [falling, partial curve]. On to `COc1ccccc1-c1c(C)nn2c(N)c(-c3ccccc3)cnc12`, for which the cell number change stood at 30.3%. In addition, the AC50 under setting [1] was 29.1 µM [rising, single point]. For the compound `O=C(CN1C(=O)/C(=C/c2ccco2)SC1=S)Nc1ccc(O)c(C(=O)O)c1`, the cell number change was -36.3%. Further, the AC50 under setting [1] is 32.6 µM [falling, single point]. In the case of `CSc1ncccc1C(=O)OCC(=O)N1CCOCC1`, the cell number change was -12.1%. Moreover, the AC50 under setting [2] is 29.1 µM [falling, single point]. In the case of `COc1cccc(CNC(=O)Cc2ccc(S(=O)(=O)N3CCOCC3)s2)c1`, the AC50 under setting [1] is 0.731 µM [rising, single point]. With `COc1ccc(-n2c(COc3cccc4ccccc34)nnc2SCC#N)cc1`, the cell number change is -43.8%. Besides, the AC50 under setting [1] was 23.1 µM [falling, single point]. Also, the AC50 under setting [2] is 29.1 µM [falling, single point]. In the case of `O=C(COc1ccccc1Cl)NNC(=O)c1ccc2nc[nH]c2c1`, the cell number change is -10.8%.

Turning to `O=C(Cn1nnc(-c2ccccc2)n1)N=Nc1c(O)[nH]c2ccccc12`, the AC50 under setting [2] was 2.31 µM [rising, partial curve, poor fit]. Still for that read-out and setting: next, `O=[N+]([O-])c1cccc(Nc2c([N+](=O)[O-])ccc3nonc23)c1`: 20.6 µM [falling, single point]. For the compound `COC(=O)CSc1ccccc1C(=O)OC`, the cell number change is -25.4%. As to `COc1ccc(C2=NOC(C(=O)Nc3c(C)n(C)n(-c4ccccc4)c3=O)C2)cc1OC` (configuration not stated), the cell number change is 3.41%. For the same compound, under setting [2], the AC50 was 2.31 µM [rising, single point]. For the compound `CC(=O)c1cnc(-c2ccccc2)s1`, the cell number change was -7.73%. On the same count and under the same terms, the result for `O=C(O)c1ccc(-c2nnc(-c3ccc([N+](=O)[O-])cc3)o2)cc1` reads -16.8%. As for `CCC(=O)Nc1sc(C(=O)N2CCCCC2)c(C)c1C#N`, the cell number change worked out at 15.4%. In addition, under setting [2], the AC50 is 4.61 µM [rising, partial curve, poor fit]. Turning to `CN(c1ccc(C(=O)N2CCCCCC2)cc1)S(=O)(=O)c1ccccc1`, under setting [2], the AC50 is 5.8 µM [falling, partial curve]. Regarding `CC(C)=CC(=O)OCC(=O)NC(=O)NC(C)(C)C`, the cell number change was -135%. The AC50 under setting [1] is 29.1 µM [falling, partial curve]. Moreover, the AC50 under setting [2] is 25.9 µM [falling, partial curve]. On to `O=C(NCC1CCCO1)c1ccccc1S(=O)(=O)c1ccc([N+](=O)[O-])cc1` (configuration not stated), for which the cell number change was -8.47%. The AC50 under setting [2] was 0.651 µM [falling, partial curve, poor fit].

Regarding `Cc1ccc(C(=O)NCCn2c(N)c(C#N)c3nc4ccccc4nc32)cc1`, the cell number change was -16.7%. Besides, under setting [2], the AC50 is 0.82 µM [rising, partial curve]. On to `COc1ccc2[nH]c(C(=O)NCCN3CCCCC3)cc2c1`, for which the cell number change is -13.2%. Further, the AC50 under setting [2] is 6.51 µM [falling, single point]. Regarding `COc1ccccc1CCNC(=O)c1ccc2nc[nH]c2c1`, the cell number change was found to be 0.758%. For the same compound, under setting [2], the AC50 is 4.61 µM [falling, single point]. Consider `COc1ccc(S(=O)(=O)N(C)c2ccc(C(=O)N3CCC(C(N)=O)CC3)cc2)cc1OC`, for which the cell number change is -52.8%. The same measure, in the same setting: next, `COc1ccc(OC)c(CNC(=O)CCS(=O)(=O)c2ccc3c(c2)oc(=O)n3C)c1`: 9.43%.

On to `COc1cccc(NC(=O)CN(C)C(=O)c2ccc(COc3ccccc3)cc2)c1`, for which the cell number change was determined as 3.25%. Further, the AC50 under setting [2] was 6.51 µM [rising, single point].

`Cc1onc(-c2ccccc2)c1C(=O)N/N=C/c1cc(Br)c(O)c(Br)c1`: the cell number change was -4.14%. Under setting [2], the AC50 was 7.31 µM [rising, partial curve].

Turning to `CCCCC(=O)Nc1ccc2c(c1)nc(CCN1CCN(C)CC1)n2C`, the cell number change was 11.3%. The AC50 under setting [2] is 6.51 µM [rising, single point]. As for `CCCN(CC(=O)Nc1ccccc1OC)C(=O)CSc1nc(C)cc(C)n1`, under setting [2], the AC50 is 6.51 µM [falling, single point].

For `Fc1ccc(NC(=S)N2CCOCC2)c(F)c1`, the AC50 under setting [2] was 0.398 µM [rising, full curve, poor fit]. For the compound `Cc1cccc(C(=O)OC(C)CN2CCCC2)c1` (configuration not stated), the cell number change is -13.5%. Further, the AC50 under setting [2] was 29.1 µM [falling, single point]. Regarding `CN(C)c1nnnn1Cc1ccc(Cl)cc1Cl`, the cell number change was -39.9%. For the same compound, the AC50 under setting [1] is 0.0731 µM [falling, partial curve, poor fit]. Further, the AC50 under setting [2] was 14.6 µM [falling, partial curve]. For `CCOC(=O)NNC(=O)c1ccc(Cl)cc1`, the cell number change was found to be 8.13%. `CCOc1ccc(NC(=O)CN(C)C(=O)c2cc(C)nc3ccccc23)cc1OCC`: the cell number change is -26.3%. In addition, under setting [2], the AC50 is 0.146 µM [falling, full curve, poor fit]. As to `Cc1cccc(NC(=O)NNC(=O)c2c(Cl)c(C)nn2C)c1`, the AC50 under setting [2] is 0.116 µM [falling, partial curve, poor fit]. Take `COc1ccc(OC)c(/C=N/NC(=O)c2cc3c(OC)cccc3[nH]2)c1`: the cell number change was determined as 11.7%. Moreover, the AC50 under setting [1] was 1.46 µM [rising, partial curve]. In addition, the AC50 under setting [2] is 1.46 µM [rising, partial curve].

Consider `O=C(CSc1nnc(CCCN2C(=O)c3cccc4cccc(c34)C2=O)n1-c1ccccc1)N1CCN(CCO)CC1`, for which the cell number change is 24.8%. Moreover, under setting [2], the AC50 was 29.1 µM [rising, single point].

On to `Cc1ccc(C(=O)Nc2ccc(NC(=O)c3ccco3)c(C)c2)cc1`, for which the cell number change was determined as 5.04%. Under setting [2], the AC50 was 29.1 µM [falling, single point]. Take `CC(/C=N/NC(=O)c1ccccc1F)=C\c1ccccc1`: the cell number change was -42.6%. Besides, the AC50 under setting [1] was 16.4 µM [falling, single point]. As to `O=C1C=CC(=O)N1N(c1ccccc1)c1ccccc1`, the AC50 under setting [2] is 25.9 µM [falling, partial curve, poor fit]. `O=c1c2[nH]cnc2n(-c2ccc(F)cc2)c(=O)n1Cc1ccccc1`: the cell number change is -12.5%. For the same compound, the AC50 under setting [2] is 0.58 µM [falling, single point].

Consider `CCN(C(=O)Cc1cccs1)c1nnc(-c2cccnc2)s1`, for which the cell number change is 6.79%. The AC50 under setting [2] is 29.1 µM [rising, single point]. With `Cc1ccc(C(=O)N2c3ccccc3NC(=O)C2C)cc1` (configuration not stated), the cell number change is -7.87%.

Regarding `CC1=C(C(=O)O)N2C(=O)C(NC(=O)c3ccc(F)cc3)C2SC1` (configuration not stated), the cell number change was determined as 15.4%. Moreover, under setting [2], the AC50 was 7.31 µM [rising, single point]. For the compound `COc1ccc(C2=NN(C(=O)CSc3nc(=O)n4ccc(C)cc4n3)C(c3ccc(C)cc3)C2)cc1` (configuration not stated), the cell number change came to 45.3%. Further, the AC50 under setting [1] was 1.84 µM [rising, partial curve]. Moreover, under setting [2], the AC50 was 1.84 µM [rising, partial curve]. On to `C=CCN1C(=O)c2ccc(C(=O)NCC(=O)Nc3c(C)cc(C)cc3C)cc2C1=O`, for which the cell number change is -21.4%. Moreover, the AC50 under setting [2] is 0.82 µM [falling, full curve, poor fit]. As to `Cc1cc(C)n2cc(CSc3ccc(Br)cc3)nc2n1`, the cell number change came to 44.8%. Further, the AC50 under setting [1] was 23.1 µM [rising, single point]. The AC50 under setting [2] was 18.4 µM [rising, single point]. In the case of `O=C(CSc1ccsc1[N+](=O)[O-])NCc1ccccc1`, the cell number change is -27.9%.

On to `COc1ccc(C)cc1NC(=O)CSc1nnc(COc2ccc(C)cc2)n1Cc1ccco1`, for which the cell number change is -33.9%. The AC50 under setting [1] is 18.4 µM [falling, partial curve]. Further, the AC50 under setting [2] is 29.1 µM [falling, single point].

For `C=CCOc1ccccc1CN1CCC(n2nccc2NC(=O)C2CCOC2)CC1` (configuration not stated), the cell number change is -12.3%. Besides, the AC50 under setting [2] was 3.66 µM [falling, full curve, poor fit].
